# In all, about 33,000 sequences were measured (“E-score (-0.5 to 0.5)”: median about -0.0034, highest 2% from about 0.25 on). The list shows a part of the results.
# Target: T1, Yap3 (UniProt P38749)
# T1 sequence: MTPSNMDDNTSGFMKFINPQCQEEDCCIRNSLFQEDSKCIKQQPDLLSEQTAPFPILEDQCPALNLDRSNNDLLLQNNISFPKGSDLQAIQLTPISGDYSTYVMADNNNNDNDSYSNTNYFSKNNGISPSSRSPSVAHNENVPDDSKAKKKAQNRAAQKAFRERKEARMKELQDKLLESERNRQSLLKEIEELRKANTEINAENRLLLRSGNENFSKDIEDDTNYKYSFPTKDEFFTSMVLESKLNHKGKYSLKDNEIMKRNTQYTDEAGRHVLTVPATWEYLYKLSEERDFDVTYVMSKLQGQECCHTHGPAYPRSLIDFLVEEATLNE
# Assay: PBM E-score (8-mer binding enrichment) (E-score (-0.5 to 0.5)); higher = stronger / more preferred TF binding
# Conditions: protein concentration: 100 nM; construct: GST-full length
# Outline: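 Yeast transcription factors carrying a GST tag, as full-length proteins or DNA-binding domains, were produced by PURExpress in vitro transcription/translation. About 100-200 nM protein was applied to universal all-10-mer Agilent arrays, double-stranded by primer extension on fresh or once-stripped slides. Bound protein was detected with fluorescent anti-GST, and scans were normalised with masliner. The Universal PBM Analysis Suite gave each ungapped eight-base word, pooled with its reverse complement, an E-score, a modified Wilcoxon-Mann-Whitney statistic.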
row,Sequence,PBM E-score
1,ATGCAATC,0.0908
2,ACCTTCAG,-0.0617
3,GTAAATTA,0.223
4,CAGGCCGC,-0.168
5,ATACCTTC,-0.0193
6,TGGTTACA,0.0144
7,ACCAGAAG,-0.0369
8,ACAGACTA,-0.119
9,AAATTGGT,0.244
10,ATTTCCGG,0.205
11,GTGTGGCA,-0.0694
12,ATCTTCAG,0.0835
13,CACCTTGG,-0.0567
14,GCAGGCTA,-0.231
15,ACGTGGGC,-0.154
16,CTGCCGGA,0.0282
17,CTGCGAGC,0.00087
18,AAATATCC,0.219
19,ACGCCGAC,0.0402
20,TCGGTTAA,0.168
21,CGGGTGGA,-0.0997
22,ATTACGCC,0.0197
23,ACTGAGAC,-0.0711
24,ATGGCTTC,-0.0247
25,GCAAGTAA,0.188

row,Sequence,PBM E-score
1,CTCGATTC,0.111
2,AACCGAAT,0.0854
3,ATCTGTCA,0.206
4,TCTGAACA,0.0958
5,GAAACGTC,-0.0528
6,ATGGTCTA,-0.0886
7,CCAATAGG,-0.00099
8,CTATTAGA,-0.0988
9,AAGGGTTG,0.0891
10,ACTAGTCA,-0.088
11,CTCGCATA,-0.0164
12,ATACAGAT,0.11
13,AAATATCA,0.187
14,CCCGATAC,-0.0724
15,GTGCCAAA,-0.144
16,AAGTTACC,0.141
17,CTACGAAC,0.138
18,CCGGCCCA,-0.252
19,GTTGAGGA,-0.113
20,GTGTGCGA,-0.0583
21,CGGTCGAC,-0.0836
22,AAAATAAA,0.204
23,CCGCATTA,0.114
24,ATACCCTC,-0.0594
25,CTTTGTGC,0.0343

row,Sequence,PBM E-score
1,TCCACTCA,-0.0431
2,ATCGAGTA,0.0073
3,AGTTATGA,0.0243
4,CGGCGAAC,-0.0186
5,ATTCAAAA,0.162
6,CGGTTGTA,-0.139
7,TGATGCCA,0.0576
8,CTTTAACA,0.147
9,GTTAATTA,0.262
10,AGAGTGAT,0.129
11,CGCGGCGA,0.136
12,AACGGACG,-0.0678
13,CTACTTTC,0.109
14,ATGTTCTC,0.0154
15,ATGTCAGC,0.0482
16,ACGGTTCT,-0.146
17,AGCCGGGA,-0.0455
18,AAACACAG,0.17
19,TCGTCAAA,0.12
20,CCCGTTAC,0.0116
21,AAGCTCCG,-0.00442
22,AGCGAAGA,-0.042
23,CTACGGTA,-0.0404
24,CTCTTCAA,-0.245
25,ACGAACTA,0.103

# A second format for some results above:
row	Sequence	PBM E-score
1	ATGCAATC	0.0908
2	ACCTTCAG	-0.0617
3	GTAAATTA	0.223
7	ACCAGAAG	-0.0369
9	AAATTGGT	0.244
10	ATTTCCGG	0.205
13	CACCTTGG	-0.0567
14	GCAGGCTA	-0.231
15	ACGTGGGC	-0.154
16	CTGCCGGA	0.0282
17	CTGCGAGC	0.00087
18	AAATATCC	0.219
19	ACGCCGAC	0.0402
23	ACTGAGAC	-0.0711
24	ATGGCTTC	-0.0247
25	GCAAGTAA	0.188
1	CTCGATTC	0.111
3	ATCTGTCA	0.206
4	TCTGAACA	0.0958
6	ATGGTCTA	-0.0886
8	CTATTAGA	-0.0988
9	AAGGGTTG	0.0891
13	AAATATCA	0.187
14	CCCGATAC	-0.0724
15	GTGCCAAA	-0.144
16	AAGTTACC	0.141
17	CTACGAAC	0.138
19	GTTGAGGA	-0.113
20	GTGTGCGA	-0.0583
22	AAAATAAA	0.204
23	CCGCATTA	0.114
24	ATACCCTC	-0.0594
25	CTTTGTGC	0.0343
1	TCCACTCA	-0.0431
4	CGGCGAAC	-0.0186
7	TGATGCCA	0.0576
8	CTTTAACA	0.147
9	GTTAATTA	0.262
12	AACGGACG	-0.0678
17	AGCCGGGA	-0.0455
18	AAACACAG	0.17
19	TCGTCAAA	0.12
20	CCCGTTAC	0.0116
21	AAGCTCCG	-0.00442
22	AGCGAAGA	-0.042
23	CTACGGTA	-0.0404
24	CTCTTCAA	-0.245
25	ACGAACTA	0.103

# (next part)

row,Sequence,PBM E-score
1,TCGGTCCA,-0.0281
2,GTACTGTA,-0.0686
3,ATGGCGAC,-0.0167
4,ACTAATAG,0.244
5,GATTTTCC,0.0437
6,AAACTGAC,-0.0546
7,ATCCCCTC,-0.223
8,CGTACGAA,0.0973
9,AACTGCCT,0.0407
10,CTTGTTAA,0.022
11,AAACTGTC,0.0726
12,CGGGGTGC,-0.228
13,AAACTGCT,-0.156
14,CCTGCTTA,-0.00519
15,CTGCTGTA,-0.0979
16,GAGATGTA,0.14
17,GAAGAAGA,0.00074
18,ACCACCTG,-0.0502
19,GCAGTCAC,-0.0834
20,GTGACTCA,0.0409
21,ACGCGCAA,0.114
22,CAAACCGC,-0.109
23,AAGGGCTC,-0.216
24,GATAAAGA,0.196
25,ACAGATTG,0.0126

row,Sequence,PBM E-score
1,CACTCATA,0.107
2,CGATGCCA,-0.195
3,AATTGTTG,0.0159
4,CGGCTGGC,-0.275
5,CCGTAACA,0.126
6,AAAGAAGG,-0.0833
7,AGCATTTG,0.0343
8,ATAATGTC,0.195
9,GCGAAAGC,-0.144
10,AGTACAGG,0.103
11,AATCAAGT,0.0618
12,AACTATGT,-0.039
13,ACTAGAAT,0.158
14,CCGGGGAG,-0.222
15,ACCAGGGA,-0.136
16,ATGCACAT,-0.0185
17,ACTTCCAA,-0.0542
18,ATTTGTCA,0.313
19,ATGTAAGA,0.277
20,ACACGACG,0.0804
21,GTAGGCAC,-0.164
22,CTACACAG,-0.0361
23,CAAGTCGG,0.0991
24,AACGATTC,0.0792
25,ACTTTCGG,-0.0572

row,Sequence,PBM E-score
1,AATTTGGA,0.0508
2,CAAAGTAA,0.0789
3,ACTTCAAA,-0.0614
4,ACCCTTCG,-0.174
5,CCATCCGG,-0.153
6,CGATATAA,0.2
7,CCGGAAAA,0.106
8,AGAATTGG,0.0708
9,ACCAATGC,0.113
10,AGGCTGCG,0.00491
11,CCTGGGCC,-0.348
12,TAATTTCA,0.309
13,ACCGAGTG,-0.179
14,TCATAAGA,0.081
15,TACATCCA,0.076
16,CGCGGTAC,0.0798
17,TCATCCCA,-0.0661
18,AGTATTCA,0.113
19,GACTCTAA,0.0306
20,CCAGTAAA,0.0139
21,CCGGATAG,0.103
22,GGGGCATA,-0.0601
23,AATGCAGC,-0.189
24,ACCAAAAG,0.147
25,ACGCCCGA,-0.142

row,Sequence,PBM E-score
1,CGAAAAAG,0.162
2,CCTGTAAG,-0.0739
3,GCATCAAC,0.139
4,AAAATTTA,0.0414
5,ACTTCCCA,0.084
6,GTGGAAGA,-0.0717
7,CGACCGGA,-0.231
8,CGGCCGAC,-0.0351
9,ACAGAGAA,0.0641
10,CTAGGTGC,-0.195
11,GTAAGTCA,0.025
12,ACTGGCGG,-0.0184
13,CCTTTAAG,-0.106
14,ACCGGCGG,-0.22
15,TATTGAGA,0.193
16,CACGTAGC,-0.273
17,CATGAACC,0.0622
18,GAATTGGA,0.0794
19,CGTTGCCC,-0.15
20,CCCCTAAG,-0.165
21,TTAATAAA,0.372
22,TGACTCCA,-0.329
